# Experimental data as given in PubChem BioAssay AID504834 (National Center for Advancing Translational Sciences (NCATS), 2011).
# Out of some 320,000 compounds screened, about 22,000 (6.9%) were called active. The inconclusive results got no clear call from the source; some entries with a clear call stand among them for comparison. The call rests on the fitted dose curve; in most records, active means well fitted inhibition curve with a large enough effect; inconclusive means small, poorly fitted or top-dose-only effect, or another doubt; inactive means no such curve, though single readings can be large or run the other way. Potencies beside an inconclusive call are fits to weak or partial responses and may not hold up.
# Assay: Primary qHTS for delayed death inhibitors of the malarial parasite plastid, 96 hour incubation
# Settings: P. falciparum luciferase reporter growth; series mostly up to 28.7 µM; activity change, negative = inhibition: at the top concentration
# In short: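 Readout is luminescence from an integrated firefly luciferase in P. falciparum. Red cells, 2% hematocrit and 0.05% parasitemia final, were cultured with compound through two parasite generations (96 hours) at 37 C, 5% CO2.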
# On the % scale 0 is the no-effect control and ±100 the full control effect; potency means the concentration at half of the fitted maximal effect.
SMILES,Potency,"activity change, negative = inhibition"
CCOc1ccc(N(C(=O)c2ccccc2Cl)C2=NC(C)(C)CS2)cc1,"inconclusive: 18.5 µM [inhibitor, single point]",
COCCCn1c(SCC(=O)Nc2ccc3c(c2)OCCO3)nnc1-c1ccoc1C,,inactive: 23%
C#CCOCCOCCOCCNc1nc(N2CCN(C(=O)CCCCCCCCCCNC(=O)[C@@H](CCC(=O)O)n3cc(CCCCCN)nn3)CC2)nc(N2CCN(C(=O)CCCCCCCCCCNC(=O)[C@H](CO)n3cc(CCCSC)nn3)CC2)n1,"inconclusive: 4.15 µM [inhibitor, partial curve, poor fit]",
CCCNC(=O)N1CCN(c2ncccn2)CC1,"inconclusive: 18.5 µM [inhibitor, single point]",
O=C(NC1CCCCC1)c1ccc2snnc2c1,,inactive: 33.9%
COc1ccc(NC(=O)c2cc3c(CO)cnc(C)c3oc2=Nc2cc(OC)cc(OC)c2)cc1,,inactive: 213%
COCn1c(=O)c2c(nc(SC3=NCCS3)n2Cc2ccccc2C)n(COC)c1=O,"inconclusive: 3.29 µM [inhibitor, full curve, poor fit]",
CCN(CC(=O)Nc1ccc(S(=O)(=O)N2CCCCC2)cc1)Cc1ccccc1,"inconclusive: 14.7 µM [inhibitor, partial curve, poor fit]",
COc1ccccc1NC(=O)c1nnn(Cc2ccccc2)c1NC(=O)C(F)(F)F,,inactive: 39%
Cc1cccc(NC(=S)N(CCN(C)C)C(C)c2cccnc2)c1 (stereo not given),"inconclusive: 11.7 µM [inhibitor, single point]",
Cc1ccc(Sc2cnccc2C#N)cc1,"inconclusive: 6.57 µM [inhibitor, partial curve, poor fit]",
O=C1CNC(=S)N1CCOc1ccccc1,,inactive: 47.5%
COc1cccc(-n2nnc3c(=O)n(CC(=O)NC4CCCC4)cnc32)c1,active: 0.329 µM,
O=C1CCCC2=C1C(c1cccs1)CC(=O)N2c1ccc(F)cc1 (stereo not given),"inconclusive: 18.5 µM [inhibitor, single point]",
CCN(C(=O)COC(=O)Cc1c(F)cccc1Cl)c1c(N)n(Cc2ccccc2)c(=O)[nH]c1=O,"inconclusive: 18.5 µM [inhibitor, single point]",
O=C1C(c2ccccc2)=C(N2CC2)c2ccccc21,active: 3.7 µM,
O=C(CN1c2ccccc2S(=O)(=O)c2ccccc21)Nc1ccccc1F,"inconclusive: 18.5 µM [inhibitor, single point]",
O=C(Nc1ccc2c(c1)CCC2)Nc1ccccc1F,,inactive: 35.6%
CC(C)(CO)CNC(=O)CC1C(=O)NCCN1CC(c1ccccc1)c1ccccc1 (stereo not given),,inactive: 496%
CCSC1=C(C#N)C(c2ccc(F)cc2)CC(=O)N1 (stereo not given),"inconclusive: 18.5 µM [inhibitor, single point]",

# Record cards (already shown).
# COCCCn1c(SCC(=O)Nc2ccc3c(c2)OCCO3)nnc1-c1ccoc1C reads activity change, negative = inhibition: inactive: 23%
# C#CCOCCOCCOCCNc1nc(N2CCN(C(=O)CCCCCCCCCCNC(=O)[C@@H](CCC(=O)O)n3cc(CCCCCN)nn3)CC2)nc(N2CCN(C(=O)CCCCCCCCCCNC(=O)[C@H](CO)n3cc(CCCSC)nn3)CC2)n1 reads Potency: inconclusive: 4.15 µM [inhibitor, partial curve, poor fit]
